# The other results are listed elsewhere or left out.
# Amino acid sequences for entries named in this document (tags omitted). A change or cut given only in a name is not applied to a line headed by its entry.
# UniProt Q8NC96: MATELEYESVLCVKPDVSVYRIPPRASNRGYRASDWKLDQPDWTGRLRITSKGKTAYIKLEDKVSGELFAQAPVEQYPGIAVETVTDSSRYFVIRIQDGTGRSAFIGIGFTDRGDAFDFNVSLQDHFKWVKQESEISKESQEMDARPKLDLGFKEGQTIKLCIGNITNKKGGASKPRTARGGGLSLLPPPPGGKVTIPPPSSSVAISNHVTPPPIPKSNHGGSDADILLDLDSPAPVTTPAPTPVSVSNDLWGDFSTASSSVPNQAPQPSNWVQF
# UniProt Q99733: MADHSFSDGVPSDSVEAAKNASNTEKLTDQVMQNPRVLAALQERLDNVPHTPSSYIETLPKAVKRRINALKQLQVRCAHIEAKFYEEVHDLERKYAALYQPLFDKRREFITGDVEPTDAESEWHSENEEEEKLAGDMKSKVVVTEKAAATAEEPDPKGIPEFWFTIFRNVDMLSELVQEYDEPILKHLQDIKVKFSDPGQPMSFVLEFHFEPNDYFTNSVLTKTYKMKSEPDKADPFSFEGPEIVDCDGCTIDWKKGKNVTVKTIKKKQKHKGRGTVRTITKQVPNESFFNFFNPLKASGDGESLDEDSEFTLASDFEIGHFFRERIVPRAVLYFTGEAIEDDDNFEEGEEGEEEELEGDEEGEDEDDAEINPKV
# UniProt O95168, whole entry, looked up: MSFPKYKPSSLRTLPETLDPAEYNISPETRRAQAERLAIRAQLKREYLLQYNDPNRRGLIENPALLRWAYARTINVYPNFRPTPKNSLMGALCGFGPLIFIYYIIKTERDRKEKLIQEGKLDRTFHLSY
# UniProt Q9Y5N5: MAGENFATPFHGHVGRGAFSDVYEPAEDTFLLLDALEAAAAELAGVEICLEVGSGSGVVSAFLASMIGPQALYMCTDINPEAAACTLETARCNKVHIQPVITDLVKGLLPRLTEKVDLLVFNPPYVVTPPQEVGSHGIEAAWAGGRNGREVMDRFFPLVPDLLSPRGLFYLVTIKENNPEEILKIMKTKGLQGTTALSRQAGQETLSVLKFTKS
# UniProt P51970, whole entry, looked up: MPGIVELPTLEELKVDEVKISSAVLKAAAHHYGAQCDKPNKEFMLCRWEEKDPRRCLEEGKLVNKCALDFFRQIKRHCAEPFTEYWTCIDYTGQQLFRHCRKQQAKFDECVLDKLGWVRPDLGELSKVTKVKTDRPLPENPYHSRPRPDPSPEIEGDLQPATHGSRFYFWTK
# UniProt Q330K2: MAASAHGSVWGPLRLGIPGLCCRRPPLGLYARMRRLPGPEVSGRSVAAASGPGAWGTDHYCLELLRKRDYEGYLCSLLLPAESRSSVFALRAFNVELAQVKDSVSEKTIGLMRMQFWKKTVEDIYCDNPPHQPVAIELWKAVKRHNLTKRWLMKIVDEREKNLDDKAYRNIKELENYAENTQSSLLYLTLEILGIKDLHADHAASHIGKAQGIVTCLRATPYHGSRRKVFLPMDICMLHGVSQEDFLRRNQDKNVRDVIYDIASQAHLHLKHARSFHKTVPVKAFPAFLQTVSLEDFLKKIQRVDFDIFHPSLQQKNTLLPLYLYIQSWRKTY
# UniProt Q8IW45: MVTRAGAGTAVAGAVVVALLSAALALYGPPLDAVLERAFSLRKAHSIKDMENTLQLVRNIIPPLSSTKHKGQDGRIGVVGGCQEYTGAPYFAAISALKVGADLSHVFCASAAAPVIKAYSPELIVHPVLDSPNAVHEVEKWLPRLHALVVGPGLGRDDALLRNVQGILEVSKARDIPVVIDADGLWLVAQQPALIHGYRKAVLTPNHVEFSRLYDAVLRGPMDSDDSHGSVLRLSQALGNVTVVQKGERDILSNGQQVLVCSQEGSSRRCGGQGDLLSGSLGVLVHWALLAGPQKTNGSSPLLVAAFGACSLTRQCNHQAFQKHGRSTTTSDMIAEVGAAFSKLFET
# UniProt Q6P582, whole entry, looked up: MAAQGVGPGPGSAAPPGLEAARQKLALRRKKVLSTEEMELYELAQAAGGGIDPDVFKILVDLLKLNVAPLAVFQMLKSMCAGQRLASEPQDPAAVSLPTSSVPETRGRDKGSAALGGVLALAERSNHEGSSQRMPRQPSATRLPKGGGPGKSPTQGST
# UniProt O00217, whole entry, looked up: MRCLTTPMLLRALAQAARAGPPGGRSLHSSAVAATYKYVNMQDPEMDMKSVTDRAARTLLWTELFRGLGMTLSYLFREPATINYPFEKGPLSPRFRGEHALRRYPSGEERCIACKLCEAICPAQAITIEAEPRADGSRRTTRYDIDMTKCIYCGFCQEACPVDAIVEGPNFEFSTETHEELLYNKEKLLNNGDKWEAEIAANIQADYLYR
# UniProt Q14686, whole entry, looked up: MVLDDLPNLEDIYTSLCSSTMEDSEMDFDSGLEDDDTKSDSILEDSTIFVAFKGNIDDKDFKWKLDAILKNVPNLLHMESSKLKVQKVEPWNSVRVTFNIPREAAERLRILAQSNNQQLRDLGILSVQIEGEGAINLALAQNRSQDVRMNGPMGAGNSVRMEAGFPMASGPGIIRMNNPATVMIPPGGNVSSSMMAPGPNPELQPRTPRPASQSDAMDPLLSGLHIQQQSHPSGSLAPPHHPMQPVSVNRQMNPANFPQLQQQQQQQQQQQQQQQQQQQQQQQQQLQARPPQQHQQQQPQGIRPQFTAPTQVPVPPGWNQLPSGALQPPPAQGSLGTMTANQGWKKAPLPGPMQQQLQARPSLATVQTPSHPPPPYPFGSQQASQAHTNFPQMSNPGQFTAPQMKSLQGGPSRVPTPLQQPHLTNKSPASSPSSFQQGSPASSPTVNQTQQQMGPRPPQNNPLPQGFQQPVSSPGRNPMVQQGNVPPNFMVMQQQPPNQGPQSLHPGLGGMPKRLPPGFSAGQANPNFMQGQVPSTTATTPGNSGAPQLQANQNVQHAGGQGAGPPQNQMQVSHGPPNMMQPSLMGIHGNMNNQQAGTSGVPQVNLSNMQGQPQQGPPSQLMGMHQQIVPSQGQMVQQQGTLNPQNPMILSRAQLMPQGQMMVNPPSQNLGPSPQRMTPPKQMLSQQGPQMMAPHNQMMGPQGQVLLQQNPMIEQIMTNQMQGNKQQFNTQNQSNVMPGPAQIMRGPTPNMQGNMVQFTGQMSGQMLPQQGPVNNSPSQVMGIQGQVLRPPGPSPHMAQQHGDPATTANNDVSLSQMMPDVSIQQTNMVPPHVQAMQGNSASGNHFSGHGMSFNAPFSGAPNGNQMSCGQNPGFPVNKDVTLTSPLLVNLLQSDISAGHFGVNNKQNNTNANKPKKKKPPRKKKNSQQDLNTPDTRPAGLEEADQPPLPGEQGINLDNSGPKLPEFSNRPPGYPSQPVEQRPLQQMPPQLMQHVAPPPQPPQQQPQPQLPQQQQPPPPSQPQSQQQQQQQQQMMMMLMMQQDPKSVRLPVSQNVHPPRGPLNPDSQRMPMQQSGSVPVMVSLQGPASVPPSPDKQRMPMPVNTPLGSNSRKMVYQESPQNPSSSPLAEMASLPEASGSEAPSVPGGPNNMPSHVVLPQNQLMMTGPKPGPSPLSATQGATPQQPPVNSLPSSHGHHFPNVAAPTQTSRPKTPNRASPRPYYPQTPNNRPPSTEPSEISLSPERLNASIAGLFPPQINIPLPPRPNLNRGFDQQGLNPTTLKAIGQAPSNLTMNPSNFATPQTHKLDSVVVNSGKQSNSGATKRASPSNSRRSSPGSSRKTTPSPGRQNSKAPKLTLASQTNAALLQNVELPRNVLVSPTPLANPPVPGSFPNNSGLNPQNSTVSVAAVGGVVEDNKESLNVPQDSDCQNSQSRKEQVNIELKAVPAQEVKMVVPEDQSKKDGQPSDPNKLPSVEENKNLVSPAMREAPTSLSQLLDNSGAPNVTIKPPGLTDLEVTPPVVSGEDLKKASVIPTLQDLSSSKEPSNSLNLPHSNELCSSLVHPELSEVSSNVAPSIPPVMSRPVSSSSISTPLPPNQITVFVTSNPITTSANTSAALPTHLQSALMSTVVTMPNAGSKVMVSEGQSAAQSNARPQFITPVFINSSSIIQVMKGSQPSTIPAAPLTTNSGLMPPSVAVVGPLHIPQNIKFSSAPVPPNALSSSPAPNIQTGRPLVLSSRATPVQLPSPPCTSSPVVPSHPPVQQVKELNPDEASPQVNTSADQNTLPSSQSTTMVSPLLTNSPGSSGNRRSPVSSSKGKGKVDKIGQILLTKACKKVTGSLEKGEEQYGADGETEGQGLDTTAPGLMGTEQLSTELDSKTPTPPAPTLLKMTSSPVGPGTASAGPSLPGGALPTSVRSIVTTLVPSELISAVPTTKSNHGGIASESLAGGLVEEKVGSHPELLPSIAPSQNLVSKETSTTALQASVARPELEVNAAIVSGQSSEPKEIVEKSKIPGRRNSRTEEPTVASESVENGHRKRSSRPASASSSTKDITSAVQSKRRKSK
# UniProt Q9GZZ1: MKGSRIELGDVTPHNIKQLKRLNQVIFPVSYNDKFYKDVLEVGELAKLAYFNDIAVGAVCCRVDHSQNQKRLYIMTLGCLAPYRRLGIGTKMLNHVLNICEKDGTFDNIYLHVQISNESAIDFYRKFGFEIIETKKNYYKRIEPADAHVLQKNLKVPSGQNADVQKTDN
# UniProt O76041: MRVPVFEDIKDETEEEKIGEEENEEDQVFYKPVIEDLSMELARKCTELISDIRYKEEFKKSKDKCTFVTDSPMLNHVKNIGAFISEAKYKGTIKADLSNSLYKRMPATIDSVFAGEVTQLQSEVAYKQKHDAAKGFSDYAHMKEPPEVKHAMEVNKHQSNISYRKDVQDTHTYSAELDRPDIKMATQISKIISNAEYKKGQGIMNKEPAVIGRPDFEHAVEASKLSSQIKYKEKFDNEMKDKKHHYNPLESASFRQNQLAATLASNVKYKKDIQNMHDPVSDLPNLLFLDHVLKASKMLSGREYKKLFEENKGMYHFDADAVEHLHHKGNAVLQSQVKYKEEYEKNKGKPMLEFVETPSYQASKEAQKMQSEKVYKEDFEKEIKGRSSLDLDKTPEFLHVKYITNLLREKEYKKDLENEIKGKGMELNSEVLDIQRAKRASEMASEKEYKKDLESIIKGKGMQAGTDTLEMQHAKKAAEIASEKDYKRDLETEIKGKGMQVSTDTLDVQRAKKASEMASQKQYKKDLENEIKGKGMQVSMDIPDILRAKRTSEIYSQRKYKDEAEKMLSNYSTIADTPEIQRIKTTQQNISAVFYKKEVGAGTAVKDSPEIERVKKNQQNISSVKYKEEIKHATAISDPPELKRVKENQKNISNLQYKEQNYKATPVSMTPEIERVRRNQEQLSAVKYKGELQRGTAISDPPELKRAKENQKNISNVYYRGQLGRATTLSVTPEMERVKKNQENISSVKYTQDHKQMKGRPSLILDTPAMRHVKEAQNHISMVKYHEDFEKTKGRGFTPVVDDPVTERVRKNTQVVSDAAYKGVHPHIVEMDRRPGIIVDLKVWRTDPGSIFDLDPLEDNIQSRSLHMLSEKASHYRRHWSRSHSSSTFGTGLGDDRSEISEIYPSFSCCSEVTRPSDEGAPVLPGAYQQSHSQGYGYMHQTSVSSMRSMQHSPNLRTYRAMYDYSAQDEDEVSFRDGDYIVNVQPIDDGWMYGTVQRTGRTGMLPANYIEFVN
# UniProt P62166, whole entry, looked up: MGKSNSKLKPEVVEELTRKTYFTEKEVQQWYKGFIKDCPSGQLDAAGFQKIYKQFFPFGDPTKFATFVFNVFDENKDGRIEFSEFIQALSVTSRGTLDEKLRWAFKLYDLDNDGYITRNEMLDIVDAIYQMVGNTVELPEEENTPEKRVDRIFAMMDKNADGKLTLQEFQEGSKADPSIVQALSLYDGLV
# UniProt Q16718, whole entry, looked up: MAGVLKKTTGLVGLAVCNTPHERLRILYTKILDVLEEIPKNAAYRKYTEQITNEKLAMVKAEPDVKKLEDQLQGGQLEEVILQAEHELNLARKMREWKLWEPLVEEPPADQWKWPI
# Key:
# Assay in all cases: log2 fold change, soluble protein after heating vs DMSO (PISA); higher = thermal stabilisation; K562 cells, 10 uM, 30 min; active = over 0.2 and 3.5 SD of the protein, either way, in both replicates (recomputed)
# [1] = compound: CC[C@@H]1C(=O)N(C)c2cnc(Nc3ccc(C(=O)NC4CCN(C)CC4)cc3OC)nc2N1C1CCCC1
# Method in brief: (§1)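 K562 cells at 2×10^6 cells/mL were treated for 30 min with 10 μM compound, and aliquots were heated for 3 min over 48°C-58°C before pooling. Extraction used PBS with 0.5% NP-40 at 4°C, and soluble protein was the supernatant after 21,000xg for 90 min, measured by TMTpro 16plex LC-MS/MS with channel sums equalised. Thermal stability values, relative to control samples and from duplicates, are log2 fold changes.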
# volasertib = compound: CC[C@@H]1C(=O)N(C)c2cnc(Nc3ccc(C(=O)N[C@H]4CC[C@H](N5CCN(CC6CC6)CC5)CC4)cc3OC)nc2N1C(C)C [volasertib]
# Method in brief: as §1
# [2] = compound: CC[C@H](C)N1C=C(C2=C(C=C(C=C21)C3=CN=C(C=C3)N4CCNCC4)C(=O)NCC5=C(C=C(NC5=O)C)C)C
# Method in brief: as §1
# epoxomicin = compound: CC[C@H](C)[C@@H](C(=O)N[C@@H]([C@@H](C)O)C(=O)N[C@@H](CC(C)C)C(=O)[C@]1(CO1)C)NC(=O)[C@H]([C@@H](C)CC)N(C)C(=O)C [epoxomicin]
# Method in brief: as §1
# [3] = compound: CCn1c(C(=O)N(C2CC2)C2CC2)cc2c3c(ncn3C)c(Nc3cc(C)n(C)n3)nc21
# Method in brief: as §1
# [4] = compound: CCn1cc(-c2ccnc3[nH]c(-c4cccc(CN(C)C)c4)cc23)c(-c2ccc(NC(=O)N(C)C)cc2)n1
# Method in brief: as §1
# [5] = compound: CN(C)CC(=O)Nc1ccc2[nH]c(=O)c3ccccc3c2c1
# Method in brief: as §1
# rosiglitazone = compound: CN(CCOC1=CC=C(C=C1)C[C@H]2C(=O)NC(=O)S2)C3=CC=CC=N3 (racemic) [rosiglitazone]
# Method in brief: as §1
# [6] = compound: CN1C2=C(C3=C1C(=O)N(N=C3)CC4=CC(=CC=C4)N)SC(=C2)S(=O)C
# Method in brief: as §1
# [7] = compound: CN1CCC(CNc2ccc3ncc(-c4cccc(OC(F)(F)F)c4)n3n2)CC1
# Method in brief: as §1
# saracatinib = compound: CN1CCN(CCOc2cc(OC3CCOCC3)c3c(Nc4c(Cl)ccc5c4OCO5)ncnc3c2)CC1 [saracatinib]
# Method in brief: as §1
# sotrastaurin = compound: CN1CCN(c2nc(C3=C(c4c[nH]c5ccccc45)C(=O)NC3=O)c3ccccc3n2)CC1 [sotrastaurin]
# Method in brief: as §1
# alvocidib = compound: CN1CC[C@H](c2c(O)cc(O)c3c(=O)cc(-c4ccccc4Cl)oc23)[C@H](O)C1 [alvocidib]
# Method in brief: as §1
# Tubastatin A = compound: CN1CCc2c(c3ccccc3n2Cc2ccc(C(=O)NO)cc2)C1 [Tubastatin A]
# Method in brief: as §1
# [8] = compound: CNC(=O)C1=CC=CC=C1NC2=NC(=NC=C2Cl)NC3=C(C=C(C=C3)N4CCOCC4)OC
# Method in brief: as §1
# defactinib = compound: CNC(=O)c1ccc(Nc2ncc(C(F)(F)F)c(NCc3nccnc3N(C)S(C)(=O)=O)n2)cc1 [defactinib]
# Method in brief: as §1
# rucaparib = compound: CNCc1ccc(-c2[nH]c3cc(F)cc4c3c2CCNC4=O)cc1 [rucaparib]
# Method in brief: as §1
# [9] = compound: CNc1nc(-c2ccc3c(N)n[nH]c3c2)cc(N2C[C@@H](C(=O)NC3CCCCC3)CC[C@H]2C)n1
# Method in brief: as §1
# encorafenib = compound: COC(=O)N[C@@H](C)CNc1nccc(-c2cn(C(C)C)nc2-c2cc(Cl)cc(NS(C)(=O)=O)c2F)n1 [encorafenib]
# Method in brief: as §1
# [10] = compound: COC(=O)[C@H](CCSC)NC(=O)C1=C(C=C(C=C1)NC[C@H](CS)N)C2=CC=CC=C2
# Method in brief: as §1
Target,log2 fold change [1],log2 fold change (volasertib),log2 fold change [2],log2 fold change (epoxomicin),log2 fold change [3],log2 fold change [4],log2 fold change [5],log2 fold change (rosiglitazone),log2 fold change [6],log2 fold change [7],log2 fold change (saracatinib),log2 fold change (sotrastaurin),log2 fold change (alvocidib),log2 fold change (Tubastatin A),log2 fold change [8],log2 fold change (defactinib),log2 fold change (rucaparib),log2 fold change [9],log2 fold change (encorafenib),log2 fold change [10]
NECAP1 (UniProt Q8NC96),inactive: 0.02,inactive: -0.072,inactive: 0.058,inactive: 0.059,inactive: 0.009,inactive: -0.037,inactive: -0.022,inactive: 0.044,inactive: -0.015,inactive: -0.099,inactive: 0.015,inactive: -0.021,inactive: -0.057,inactive: 0.009,inactive: 0.04,inactive: -0.09,inactive: -0.046,inactive: 0.009,inactive: -0.004,inactive: -0.016
NAP1L4 isoform 2 (UniProt Q99733),inactive: -0.068,inactive: -0.185,inactive: 0.035,inactive: 0.085,inactive: 0.01,inactive: 0.008,inactive: 0.007,inactive: 0.008,inactive: -0.034,inactive: 0.054,inactive: 0.011,inactive: 0,inactive: 0.002,inactive: -0.036,inactive: 0.003,inactive: -0.02,inactive: -0.017,inactive: -0.037,inactive: 0.016,inactive: 0.005
NDUFB4 (UniProt O95168),inactive: -0.064,inactive: -0.064,inactive: 0.026,inactive: 0.052,inactive: -0.016,inactive: -0.054,inactive: 0.01,inactive: -0.011,inactive: -0.053,inactive: -0.135,inactive: 0.036,inactive: -0.012,inactive: -0.012,inactive: 0.019,inactive: 0.054,inactive: 0,inactive: 0.063,inactive: -0.023,inactive: -0.068,inactive: 0.033
N6AMT1 (UniProt Q9Y5N5),inactive: 0.064,inactive: 0.002,inactive: -0.008,inactive: 0.109,inactive: -0.017,inactive: -0.169,inactive: 0.049,inactive: 0.019,inactive: -0.078,inactive: -0.001,inactive: -0.012,inactive: -0.07,inactive: -0.017,inactive: -0.011,inactive: 0.005,inactive: 0,inactive: -0.032,inactive: 0.022,inactive: -0.098,inactive: -0.087
NDUFA8 (UniProt P51970),inactive: 0.003,inactive: -0.009,inactive: -0.002,inactive: 0.031,inactive: 0.025,inactive: 0.001,inactive: -0.01,inactive: 0.001,inactive: 0,inactive: -0.09,inactive: -0.022,inactive: 0.009,inactive: -0.003,inactive: -0.014,inactive: 0.044,inactive: -0.033,inactive: -0.034,inactive: -0.046,inactive: 0.005,inactive: 0.086
NDUFAF6 (UniProt Q330K2),inactive: -0.27,inactive: -0.027,inactive: -0.028,inactive: 0.055,–,inactive: -0.059,inactive: -0.078,–,inactive: -0.014,active: -0.721,inactive: -0.071,inactive: -0.112,–,inactive: -0.101,inactive: 0.038,inactive: -0.04,inactive: -0.108,inactive: -0.146,inactive: 0.081,inactive: 0.084
NACA (UniProt E9PAV3),inactive: 0.05,inactive: 0.045,inactive: -0.034,inactive: -0.025,inactive: 0.017,inactive: 0.007,inactive: -0.059,inactive: -0.034,inactive: -0.025,inactive: -0.012,inactive: 0.077,inactive: -0.004,inactive: 0.086,inactive: -0.003,inactive: -0.033,inactive: -0.001,inactive: 0.003,inactive: -0.014,inactive: -0.006,inactive: 0.056
NAXD (UniProt Q8IW45),inactive: 0.012,inactive: 0.085,inactive: 0.062,inactive: 0.106,inactive: 0.038,inactive: -0.129,inactive: 0.01,inactive: -0.021,inactive: -0.027,inactive: -0.061,inactive: 0.077,inactive: 0.02,inactive: 0.016,inactive: 0.208,inactive: -0.013,inactive: 0.006,inactive: 0.072,inactive: -0.065,inactive: -0.019,inactive: 0.009
MZT2A (UniProt Q6P582),inactive: 0.026,inactive: 0.098,inactive: 0.053,inactive: 0.167,inactive: 0.053,inactive: 0.184,inactive: -0.072,inactive: -0.058,inactive: 0.051,inactive: -0.097,inactive: 0.013,inactive: 0.048,inactive: -0.047,inactive: 0.244,inactive: 0.006,inactive: 0.05,inactive: 0.1,inactive: -0.064,inactive: 0.067,inactive: 0.05
NDUFS8 (UniProt O00217),inactive: -0.103,inactive: -0.097,inactive: -0.005,inactive: 0.039,–,inactive: -0.043,inactive: 0,–,inactive: -0.069,active: -0.41,inactive: -0.011,inactive: -0.061,–,inactive: -0.04,inactive: -0.037,inactive: -0.009,inactive: -0.093,inactive: 0.017,inactive: 0.059,inactive: -0.026
NCOA6 (UniProt Q14686),inactive: 0.124,inactive: 0.155,inactive: -0.013,inactive: -0.058,inactive: -0.04,inactive: 0.246,inactive: -0.089,inactive: -0.004,–,inactive: 0.157,–,inactive: 0.057,–,inactive: -0.012,inactive: -0.023,inactive: -0.222,inactive: 0.068,–,inactive: 0.114,inactive: 0.095
NAMPT (UniProt C9JF35),inactive: 0.087,inactive: -0.083,inactive: -0.029,inactive: -0.071,inactive: -0.039,–,–,inactive: 0.1,inactive: -0.128,–,inactive: 0.105,inactive: 0.059,inactive: 0.011,inactive: -0.07,inactive: 0.122,–,inactive: -0.277,inactive: -0.081,inactive: 0.025,–
NAA50 (UniProt Q9GZZ1),inactive: -0.04,inactive: -0.013,inactive: 0.074,inactive: 0.025,inactive: -0.011,inactive: -0.063,inactive: 0.016,inactive: 0.023,inactive: -0.093,inactive: -0.007,inactive: -0.007,inactive: -0.026,inactive: -0.105,inactive: 0.024,inactive: -0.019,inactive: -0.054,inactive: 0.015,inactive: -0.006,inactive: -0.012,inactive: -0.022
NEBL (UniProt O76041),inactive: 0.02,inactive: 0.031,inactive: 0.175,inactive: -0.028,inactive: -0.031,–,inactive: -0.014,inactive: -0.016,inactive: 0.135,–,inactive: 0.136,inactive: 0.022,inactive: 0.058,inactive: 0.094,inactive: 0.024,inactive: -0.013,inactive: -0.053,inactive: 0.015,inactive: -0.024,inactive: 0.182
NCS1 (UniProt P62166),inactive: -0.022,inactive: -0.039,inactive: 0.029,inactive: -0.035,inactive: 0.038,inactive: -0.013,inactive: 0.013,inactive: 0.017,inactive: -0.038,inactive: -0.029,inactive: 0.083,inactive: 0.068,inactive: 0.059,inactive: 0.013,inactive: 0.006,inactive: -0.034,inactive: -0.021,inactive: -0.025,inactive: 0,inactive: 0.017
NDUFA5 (UniProt Q16718),inactive: 0.041,inactive: -0.038,inactive: -0.028,inactive: 0.144,inactive: -0.024,inactive: -0.041,inactive: -0.023,inactive: -0.022,inactive: -0.051,inactive: 0.032,inactive: -0.025,inactive: 0.042,inactive: -0.04,inactive: -0.019,inactive: -0.001,inactive: -0.016,inactive: -0.023,inactive: -0.014,inactive: -0.028,inactive: -0.051
"NA, A0A0B4J2A0",inactive: -0.163,inactive: -0.036,inactive: 0.008,inactive: 0.11,–,inactive: -0.055,inactive: -0.004,–,inactive: -0.078,inactive: -0.101,inactive: 0.007,inactive: 0.044,–,inactive: -0.058,inactive: -0.077,inactive: -0.051,inactive: -0.005,inactive: -0.022,inactive: -0.003,inactive: -0.037

# Taken from above.
# Value for NAMPT (UniProt C9JF35) under log2 fold change [6]: inactive: -0.128
# Value for NAXD (UniProt Q8IW45) under log2 fold change [10]: inactive: 0.009
